Record: PubChem BioAssay AID1259405 (NCATS, 2018)

- Screen: 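Mouse-designed siRNAs used to find CHO productivity engineering targets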 (primary screen)
- Cells: Chinese hamster CHO-K1 ovary cells with stable secreted eGFP expression
- Knock-down reagent: single siRNA against mouse genes, 0.8 pmol siRNA per well (2 µl of 400 nM stock)
- Time to read-out: 3 days
- Measured: 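Per-well intracellular GFP measured by laser scanning cytometry, plus viability from ATP luminescence, each relative to plate median of non-targeting control wells, in %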
- Scale: GFP, % of control: higher = more GFP per well, higher productivity; viability (ATP), % of control: higher = more viable cells (more ATP)
- Hit rule: 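Called active when intracellular GFP, relative to negative control, is at or above 120%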
The deposit covers about 50,000 reagents; this is a random part of them. About 4,000 of them (8%) count as active. 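Mouse siRNA library applied to hamster cells; one well for each siRNA.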 The numbers tell different reagents against one gene apart.

The opening 2 records, to show the layout:
| gene | reagent | GFP, % of control | viability (ATP), % of control | outcome |
| --- | --- | --- | --- | --- |
| Tmprss11b | 1 | 77 | 81 | inactive |
| Tmprss11b | 2 | 81.5 | 74.4 | inactive |

Main list, from the first entry:
| gene | reagent | GFP, % of control | viability (ATP), % of control | outcome |
| --- | --- | --- | --- | --- |
| Tmprss11b | 1 | 77 | 81 | inactive |
| Tmprss11b | 2 | 81.5 | 74.4 | inactive |
| Tmprss11b | 3 | 71.7 | 84.5 | inactive |
| Tmem132e | 1 | 67 | 75.4 | inactive |
| Tmem132e | 2 | 60.9 | 65.3 | inactive |
| Tmem132e | 3 | 91.4 | 39.2 | inactive |
| Pals1 | 1 | 67.9 | 81 | inactive |
| Ufsp1 | 1 | 75.1 | 116 | inactive |
| Ufsp1 | 2 | 55.9 | 30.1 | inactive |
| Ufsp1 | 3 | 103 | 124 | inactive |
| Triml1 | 1 | 70.1 | 49.5 | inactive |
| Triml1 | 2 | 87.6 | 84.9 | inactive |
| Triml1 | 3 | 30.3 | 39.4 | inactive |
| Gm5414 | 1 | 68.9 | 49.5 | inactive |
| Gm5414 | 2 | 63 | 67.9 | inactive |
| Gm5414 | 3 | 122 | 94.1 | active |
| Nckap1 | 1 | 110 | 95 | inactive |
| Nckap1 | 2 | 74.3 | 93.1 | inactive |
| Nckap1 | 3 | 73.8 | 57.4 | inactive |
| Or2h1 | 1 | 86.7 | 92.3 | inactive |
| Or2h1 | 2 | 69.6 | 69 | inactive |
| Or2h1 | 3 | 92.6 | 98.7 | inactive |
| Rtkn2 | 1 | 90.8 | 64.2 | inactive |
| Rtkn2 | 2 | 99.8 | 70.1 | inactive |
| Rtkn2 | 3 | 61.5 | 65.9 | inactive |
| Rps6ka1 | 1 | 94.4 | 48 | inactive |
| Rps6ka1 | 2 | 44 | 64.1 | inactive |
| Rps6ka1 | 3 | 69.8 | 85.7 | inactive |
| Cbx3 | 1 | 46.3 | 72.7 | inactive |
| Cbx3 | 2 | 53.1 | 87.5 | inactive |
| Cbx3 | 3 | 51.8 | 44.3 | inactive |
| B3galt6 | 1 | 113 | 84.8 | inactive |
| B3galt6 | 2 | 56.3 | 70.4 | inactive |
| B3galt6 | 3 | 92.4 | 96.9 | inactive |
| Vmn1r15 | 1 | 92.5 | 63.2 | inactive |
| Vmn1r15 | 2 | 73.8 | 58.6 | inactive |
| Vmn1r15 | 3 | 50.6 | 72.7 | inactive |
| Vps72 | 1 | 36 | 63.7 | inactive |
| Vps72 | 2 | 66.9 | 80.5 | inactive |
| Vps72 | 3 | 67.7 | 85.5 | inactive |
| Ybx3 | 1 | 43.1 | 36.4 | inactive |
| Ybx3 | 2 | 75.2 | 68.5 | inactive |
| Spred2 | 1 | 75.6 | 71.4 | inactive |
| Spred2 | 2 | 56.7 | 57.9 | inactive |
| Spred2 | 3 | 105 | 99.1 | inactive |
| Alkbh6 | 1 | 72.7 | 76 | inactive |
| Alkbh6 | 2 | 85.2 | 75.6 | inactive |
| Alkbh6 | 3 | 101 | 95.2 | inactive |
| Zfp647 | 1 | 83.9 | 71.5 | inactive |
| Zfp647 | 2 | 88.7 | 76.1 | inactive |
| Pck1 | 1 | 75 | 80.1 | inactive |
| Pck1 | 2 | 75 | 78.8 | inactive |
| Pck1 | 3 | 60.7 | 65.1 | inactive |
| Dcakd | 1 | 128 | 96.3 | active |
| Il15ra | 1 | 102 | 111 | inactive |
| Il15ra | 2 | 30.6 | 26.8 | inactive |
| Il15ra | 3 | 104 | 63.3 | inactive |
| Uchl5 | 1 | 94.3 | 114 | inactive |
| Uchl5 | 2 | 55 | 51.1 | inactive |
| Uchl5 | 3 | 41.4 | 56.7 | inactive |
| Kcng4 | 1 | 46.9 | 40.7 | inactive |
| Kcng4 | 2 | 53.6 | 58.3 | inactive |
| Kcng4 | 3 | 98.9 | 93.6 | inactive |
| Pipox | 1 | 80.8 | 71.5 | inactive |
| Pipox | 2 | 62.8 | 55.7 | inactive |
| Pipox | 3 | 91.9 | 70.1 | inactive |
| Gpr37 | 1 | 136 | 61.4 | active |
| Gpr37 | 2 | 60.7 | 63.2 | inactive |
| Gpr37 | 3 | 72.1 | 68.2 | inactive |
| Gm9946 | 1 | 88 | 90.3 | inactive |
| Gm9946 | 2 | 92.7 | 72.2 | inactive |
| Gm9946 | 3 | 74.2 | 117 | inactive |
| P4hb | 1 | 70.6 | 108 | inactive |
| P4hb | 2 | 29.5 | 58 | inactive |
| P4hb | 3 | 48.2 | 73.4 | inactive |
| Fam170a | 1 | 84.5 | 81.4 | inactive |
| Fam170a | 2 | 78.5 | 68.6 | inactive |
| Fam170a | 3 | 65 | 71.6 | inactive |
| Sftpb | 1 | 179 | 93.8 | active |
| Sftpb | 2 | 93 | 67.8 | inactive |
| Sftpb | 3 | 68.7 | 64.7 | inactive |
| Gm11961 | 1 | 90.5 | 62.8 | inactive |
| Gm11961 | 2 | 137 | 54.2 | active |
| Gm11961 | 3 | 112 | 80.5 | inactive |
